Laboratory results: US9017689B2 (Circassia Limited, priority 2010, dated 2015)

Assay: peptide synthesis
Conditions: whole synthesis, HPLC, scale of the general procedure approximately 10 mg batch size, non-GMP
For AERERIFKRFDANGEGK, the “final purity (method not given)” value was 98.4%.
With AKYMVIQGEPGRVIRGK the “final purity (method not given)” value was 97.3%.
For ETLLRAVESYLLAHSDAY, the “final purity (method not given)” value was 97.5%.
For FNYETETTSVIPAARK, the “final purity (method not given)” value was 99.2%.
In the case of KEMGETLLRAVESYLLAHS, the “final purity (method not given)” value is reported as 97.3%.
With PAARMFKAFILEGDKLVPK the “final purity (method not given)” value was 97.4%.
With PGTIKKISFPEGFPFKYV the “final purity (method not given)” value was 98.1%.
In the case of SNEIKIVATPEGGSILK, the “final purity (method not given)” value is reported as 97.9%.

Where a sequence shows no end group, the ends are not given.
